No constants are given. Whether binding was seen depends on the method and setting. In cells and extracts the contact can be indirect. Some entries that bind do so weakly or less than the wild type. Tags and fused reporters may be left off the sequences shown.
Molecular target: T1, Myc-SNAP-23 (UniProt O09044)
T1 sequence: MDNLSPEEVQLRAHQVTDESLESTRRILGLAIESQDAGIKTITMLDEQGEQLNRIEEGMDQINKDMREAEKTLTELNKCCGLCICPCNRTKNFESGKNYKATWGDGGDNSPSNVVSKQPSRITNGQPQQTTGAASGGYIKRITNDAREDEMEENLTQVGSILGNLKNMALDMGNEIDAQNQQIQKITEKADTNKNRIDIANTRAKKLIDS
Assay: co-IP; lysates of J774 cells stably co-expressing mVenus-tagged proteins and Myc-SNAP-23, with or without zymosan; immunoprecipitated with anti-Myc antibodies, Western blot

- binding: binds
B1: mVenus-MORN2 wt (membrane occupation and recognition nexus repeat-containing-2), full-length form (protein, UniProt Q6UL01 2-79)
chain: NGFGRLEHFSGAVYEGQFKDNMFHGLGTYTFPTGAKYTGNFNENRVEGEGEYTDTQGLQWCGNFHFTAAPGLKLKLYM

Reference: article PMC7327995
